In publication doi:10.1101/2025.08.28.672867:
These are yes or no findings as the source states them, for the method shown. In cells and extracts the contact can be indirect. These calls come from enrichment with a bait or labelling near it, and not all partners need be listed. For some of these results: Where a sequence is shown, tags or fusion partners need not be part of it.

Amino acid sequences for entries named in this document (tags omitted).
UniProt O60016: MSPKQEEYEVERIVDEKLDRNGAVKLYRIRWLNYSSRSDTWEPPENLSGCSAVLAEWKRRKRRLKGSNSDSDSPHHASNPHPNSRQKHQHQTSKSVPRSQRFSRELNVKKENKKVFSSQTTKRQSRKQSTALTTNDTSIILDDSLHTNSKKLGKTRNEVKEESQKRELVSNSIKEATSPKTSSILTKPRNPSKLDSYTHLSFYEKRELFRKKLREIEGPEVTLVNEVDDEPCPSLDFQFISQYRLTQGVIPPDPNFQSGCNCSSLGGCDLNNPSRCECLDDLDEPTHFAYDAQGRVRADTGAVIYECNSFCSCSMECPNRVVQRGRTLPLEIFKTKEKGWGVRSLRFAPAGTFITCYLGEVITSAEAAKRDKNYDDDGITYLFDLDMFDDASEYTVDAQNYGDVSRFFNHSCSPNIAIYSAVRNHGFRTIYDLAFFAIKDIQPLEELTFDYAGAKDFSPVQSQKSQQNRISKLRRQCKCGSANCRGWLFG

Experiments:
[1] = target: FLAG-Clr4 (N-terminal 3×FLAG), wild type (S. pombe) (UniProt O60016); test: affinity purification with mass spectrometry; FLAG-Clr4 immunoprecipitations from S. pombe lysates (wild-type, cul4-K680R and cul4–1 cells); TMT quantitative mass spectrometry
[2] = target: FLAG-Clr4 (N-terminal 3×FLAG), wild type (S. pombe), O60016; test: as above; conditions: remark: other sources report otherwise

| Binder | binding [1] | binding [2] |
| --- | --- | --- |
| Cul4-K680R (protein, UniProt O14122 1-734) MPPEAKRIVVKGFDPRKSRQRQETYYVTMIDRLNMALQVVMAGLGLKTGYQELYSGVENLTRADQASRCFNILQHHMSSGIQLLKDSAESFIQLEGTETDTNACTVVVGCWNKWLERVEIVQNIFYYMDKTFLSHHPDYPTIEELSLSLFREKLMAVKNIQIPFLNSLLQSFENLHSSKSTDHAYLQDAMLMLHRTEMYSSVFVPMYLVMLSRFYDTESSQKIQELPLEEYLEYAMSSLEREDAYVEKFDIVRDKKSIRETVQRCLITSHLDTLTKGISQFIEKRDAHSCKLLYALLQFNHETEYLIQPWSDCLVDVGFKLVNDESKDDTLVQELLSFHKFLQVVVDESFLHDETLSYAMRKAFETFINGAKGSQREAPARLIAKYIDYLLRVGEQASGGKPLKEVFSEILDLFRYIASKDIFEAYYKLDIAKRLLLNKSASAQNELMLLDMLKKTCGSQFTHSLEGMFRDVNISKEFTSSFRHSKAAHNLHRDLYVNVLSQAYWPSYPESHIRLPDDMQQDLDCFEKFYLSKQVGKKISWYASLGHCIVKARFPLGNKELSISLFQACVLLQFNNCLGGEGISYQDLKKSTELSDIDLTRTLQSLSCARIRPLVMVPKSKKPSPDTMFYVNEKFTDKLYRVKINQIYLKEERQENSDVQEQVVRDRQFELQASIVRVMRQKEKMKHDDLVQYVINNVKDRGIPLVSDVKTAIEKLLEKEYLEREDNDIYTYVT | binds |  |
| Raf1 in S. pombe cells (protein, UniProt O74910 1-638) MTNSSPRVKRRTDTQYLHSVSSKLPKVDFDTNNEEFFEEEFEIYDPFYRAELPCPKPSLSISKHSIAKVPSNVNKRLELQLLLTSGTFLPNSRPYLSERVRKHTHLLSNSITGDDKPSLIHVDFTPEECFILQEAKLKFGPVNSVQFNDAYSTHISPKLPGRAYEDCQKFEIDNPSLSPVDKHGAIILRTYKKNKKLLPDYLKSFYNAGSSYFQREQVHQLMDGESVFFLKPWKHFNETSGDTVCVAYNPLCEKFALGSTAQDGAYNRLGNLWIGDFHSETIQSLESHYKLNQVGEKEYSTISDLCFSKGNLFLYTGAFDNAVKVWDMEGNLCGIFNAPTDYIHKLALSDDDLLAVACKNGYGYLLSTDNSTGEILTSANLIYPEALEKGYSASLIEFSNFLGRSSDKVIIGYDSFHTSNNRGCLALFDASTASFVQKFNTADEAFTSLYMHPSQVGFVASSNTLSNGRVYYLDTRMYKVCLNFTTTQKDINHATISNSGILVTSSGTDNQTFVWDSRKPDKPLSLLKHGKTKMIHFDGANEEEVDAGINMAQWQPKGNLFVTGGSDGIVKVWDLRLNNPFIQNFTEMNSAITYGGFSEDASKLTVCCVGGDVNMYSLGNDNGNKFGEFRIIENRLLT | binds |  |

Next, values leading:

| binding [1] | binding [2] | Binder |
| --- | --- | --- |
| binds |  | Rik1-myc (protein, UniProt Q10426 1-1040) MALCVHSFWATAVDTATSCHFISSENCLVLLQALKINIYLCSEVHGLQFFTSIPLFSTVKHIRPYRPPGLDRDYLFVVLNDDTYFSIYWDEDYQKVIVDHPPVRYRVTFPWNRNAKSYCLVDLRMRAIFLSIDEISMICIRILSAEERLKTGRSIDSGFPFSFPVHLIYDMCILNDSSTPTLVVLHSDGLDCYVTAFLLDLSSKSLGKGIRLFERVKPSMIMPFGKRGLLVFESLFIHCMYRGNFVTINGPCTTYMHWTPLKGQKMHYIVCDTNGYLFGVYSSILGKNKWSLVMERLPIPPFDFITSLNSIHEGLLFIGSKNSESKLINLSTLKDVDSIPNLGPIHDLLVLKNDIEKSFLVCAGTPRNASLIYFQHALKLDILGQTKISGILRAMVLPSYPEHKLFLGFPSETVAFNIKEDFQLELDPSLSTKERTIALSGTNGEFVQVTSTFLCIYDSAKRSRLVYIEKITNAACYQEYSAIVINGTALAIFKKDTEVARKVFESEISCLDFSAQFQIGVGFWSKQVMILTFSDNSSISCAFQTNVPSLPRNIILEGVGVDRNLLLVSSGSGEFKSYVLFKNNLVFSETKHFGTTPVSFRRFTMNIGTYIICNNDCPHMVYGFNGALCYMPLSMPQSYDVCQFRDNSGKDFLISVSLGGLKFLQLNPLPELTPRKVLLEHVPLQAIIFQNKLLLRTLENRYEDYESYKENYHLELVDSYDDNSFRVFSFTENERCEKVLKINESSLLVGTSIIEQDKLVPVNGRLILLEFEKELQSLKVVSSMVLSAAVIDLGVYNDRYIVAFGQQVAIVKLTEERLMIDSRISLGSIVLQLIVEGNEIAIADSIGRFTIMYFDGQKFIVVARYLFGENIVKAALYEGTVYIIATNSGLLKLLRYNKDAKNFNDRFICESVYHLHDKVSKFQNFPITNTNSFLEPKMLFATEIGAIGSIVSLKDKELELEELTRKIRKLKFSYLSSMDYESIEADLISPVPFIDGDLVIDVKRWASSELFRLCRSVEHRESLNSYQKVQALLEEIQSLC |
|  | binds | Raf2 in S. pombe cells, O74560 1-636 (protein) MPPVRAEKKRKTDLIEQVCVTNKAGELVDLEDVLEYGPYSLTGILSSEKDEQEPLFDESIVLGYSIKISPVWTYNLKDVPEKETMSIWIVTPQRRYGILSPSSEYKAIYEQISEKNRLFYLIKTKFKDDMISGTLEDYDNYIEVLKEKLELPSCFQAILLVQKHIRFLLTQMVATSSLHVWSESPFFIRIRSSYEHLILQINKNIYNARQERKKSKLSSNNPSDNNTTMKSSLNQALTLINLPEQPFSISSPTATPQLGVVKRTSPLRFPLNDIWLSGLRIVDPNIESISLWKRIQVSTSPKHQRYISLQEVCSVIAQQLQITNLEALNKLSSHGETLLQIMHTAFTWRGTKLFNDIKHAIGFRSSVQQARSQFRGYCYDYLFMHCNNGEKTSLHLLRTLICMKLDFSNAQLAAKILFHFLLFDIGSGLSGSDYTYEQYINHSAVAFSFTEEIFEKNFVTVLPDFVKLFSISFGYWPAFSFYDELLKLLRNKYPKVYSSTPNLCDQVWLDRTNLFPCNRSTRSTLPYRPTKLLDLASASSCLSKKETDFKQDTGLYSYNLEKVEALKVSPDLQTGIWSCPVQNCLYFAVCDNPYKPSQVIYDHLLGHVDSKFIFKTPSNSVRSFTNKLEHIMYNIN |
